Experimental data taken from US20040072268A1.
Results are given in words; binding and its absence hold for the method and conditions named. In cells and extracts the contact can be indirect. Some binding calls cover weakened binding; strength is not graded here.

By UniProt entry, the sequences of proteins in these tests, tags left out. Where a name states a change or a piece, a line headed by the entry shows the natural chain unless it says otherwise.
UniProt P38398: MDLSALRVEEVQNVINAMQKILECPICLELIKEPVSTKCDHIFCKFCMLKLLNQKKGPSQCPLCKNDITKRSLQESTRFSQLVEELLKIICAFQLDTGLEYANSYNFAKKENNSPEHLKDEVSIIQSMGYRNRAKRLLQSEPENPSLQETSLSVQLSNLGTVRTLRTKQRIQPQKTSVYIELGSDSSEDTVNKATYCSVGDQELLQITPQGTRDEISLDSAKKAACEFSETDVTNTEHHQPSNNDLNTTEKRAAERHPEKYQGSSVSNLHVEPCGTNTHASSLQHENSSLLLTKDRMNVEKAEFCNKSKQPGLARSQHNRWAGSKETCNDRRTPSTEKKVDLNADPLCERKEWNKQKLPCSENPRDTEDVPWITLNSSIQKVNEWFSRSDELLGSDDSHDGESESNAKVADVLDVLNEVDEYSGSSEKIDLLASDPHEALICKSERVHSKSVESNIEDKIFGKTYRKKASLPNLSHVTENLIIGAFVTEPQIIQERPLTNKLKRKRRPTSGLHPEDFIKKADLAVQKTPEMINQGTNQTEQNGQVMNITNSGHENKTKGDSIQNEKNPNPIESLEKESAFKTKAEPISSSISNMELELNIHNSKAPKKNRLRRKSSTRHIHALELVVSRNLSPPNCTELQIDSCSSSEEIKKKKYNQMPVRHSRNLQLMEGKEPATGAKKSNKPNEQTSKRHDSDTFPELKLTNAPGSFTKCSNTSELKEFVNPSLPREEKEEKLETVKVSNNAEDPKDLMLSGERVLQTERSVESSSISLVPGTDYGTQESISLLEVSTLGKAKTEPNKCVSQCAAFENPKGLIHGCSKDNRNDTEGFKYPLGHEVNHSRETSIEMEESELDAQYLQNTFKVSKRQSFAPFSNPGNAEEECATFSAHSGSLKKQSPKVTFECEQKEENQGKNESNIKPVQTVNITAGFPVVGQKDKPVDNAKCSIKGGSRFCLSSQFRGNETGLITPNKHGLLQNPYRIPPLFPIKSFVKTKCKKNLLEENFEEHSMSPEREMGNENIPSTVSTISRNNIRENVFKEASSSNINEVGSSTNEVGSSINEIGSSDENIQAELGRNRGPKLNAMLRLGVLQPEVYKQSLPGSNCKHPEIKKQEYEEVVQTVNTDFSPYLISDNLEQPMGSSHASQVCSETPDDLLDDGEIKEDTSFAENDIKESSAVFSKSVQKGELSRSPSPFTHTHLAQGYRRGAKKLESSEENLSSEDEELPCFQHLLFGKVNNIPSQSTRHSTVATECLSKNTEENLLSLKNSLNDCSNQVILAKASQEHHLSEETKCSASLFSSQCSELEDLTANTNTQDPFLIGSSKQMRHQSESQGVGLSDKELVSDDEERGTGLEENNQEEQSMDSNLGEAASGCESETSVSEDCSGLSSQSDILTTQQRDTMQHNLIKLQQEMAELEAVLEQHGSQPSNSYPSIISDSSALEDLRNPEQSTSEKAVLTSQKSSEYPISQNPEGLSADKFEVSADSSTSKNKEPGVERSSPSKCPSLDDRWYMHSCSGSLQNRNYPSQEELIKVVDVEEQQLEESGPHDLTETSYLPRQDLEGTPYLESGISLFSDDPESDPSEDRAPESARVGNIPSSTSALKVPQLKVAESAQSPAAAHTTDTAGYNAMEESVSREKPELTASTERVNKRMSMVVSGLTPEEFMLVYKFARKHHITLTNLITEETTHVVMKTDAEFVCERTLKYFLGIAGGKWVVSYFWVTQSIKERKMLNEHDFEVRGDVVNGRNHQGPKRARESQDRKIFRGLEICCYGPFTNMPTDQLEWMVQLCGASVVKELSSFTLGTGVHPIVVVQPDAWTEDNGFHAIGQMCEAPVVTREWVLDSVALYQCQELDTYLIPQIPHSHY
UniProt P46736: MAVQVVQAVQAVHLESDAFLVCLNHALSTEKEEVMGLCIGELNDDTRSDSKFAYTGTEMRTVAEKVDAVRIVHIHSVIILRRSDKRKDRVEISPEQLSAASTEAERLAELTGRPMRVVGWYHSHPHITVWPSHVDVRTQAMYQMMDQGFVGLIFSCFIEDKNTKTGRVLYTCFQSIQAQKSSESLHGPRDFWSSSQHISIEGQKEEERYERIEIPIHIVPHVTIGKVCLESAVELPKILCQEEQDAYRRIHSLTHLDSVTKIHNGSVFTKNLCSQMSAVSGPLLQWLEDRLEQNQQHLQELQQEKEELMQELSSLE
UniProt Q99728: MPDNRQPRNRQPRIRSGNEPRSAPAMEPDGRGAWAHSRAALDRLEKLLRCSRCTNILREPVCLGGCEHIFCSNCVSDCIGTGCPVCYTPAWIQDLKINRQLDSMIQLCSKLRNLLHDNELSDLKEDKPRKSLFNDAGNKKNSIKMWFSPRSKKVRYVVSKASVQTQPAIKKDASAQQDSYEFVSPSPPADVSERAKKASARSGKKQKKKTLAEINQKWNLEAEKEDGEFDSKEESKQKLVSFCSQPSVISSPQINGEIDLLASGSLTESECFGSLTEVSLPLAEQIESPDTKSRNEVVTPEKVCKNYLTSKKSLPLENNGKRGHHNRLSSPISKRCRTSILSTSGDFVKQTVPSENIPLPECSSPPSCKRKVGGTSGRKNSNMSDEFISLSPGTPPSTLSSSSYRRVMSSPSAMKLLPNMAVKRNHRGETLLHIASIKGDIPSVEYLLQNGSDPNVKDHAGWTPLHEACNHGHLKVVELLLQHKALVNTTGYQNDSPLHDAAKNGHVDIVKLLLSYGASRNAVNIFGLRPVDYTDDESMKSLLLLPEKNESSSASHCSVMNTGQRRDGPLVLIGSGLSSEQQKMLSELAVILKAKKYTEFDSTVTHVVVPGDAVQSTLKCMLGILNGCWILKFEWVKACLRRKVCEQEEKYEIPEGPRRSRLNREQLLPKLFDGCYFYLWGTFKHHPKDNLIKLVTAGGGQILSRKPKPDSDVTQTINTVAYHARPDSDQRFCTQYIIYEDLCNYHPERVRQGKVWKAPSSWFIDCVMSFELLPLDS

Experiments:
[1] = target: GST-BRCA1 fragment F4 (BRCA1 residues 758-1064) (Homo sapiens (Human)) (UniProt P38398); test: GST pull-down of (His)6-FLAG-BRCC36 with GST-BRCA1 fragment, anti-FLAG western blot
[2] = target: GST-BRCA1 fragment F3 (BRCA1 residues 502-802) (Homo sapiens (Human)) (UniProt P38398); test: as above
[3] = target: GST-BRCA1 (1-639) (Homo sapiens (Human)) (UniProt P38398); test: GST pull-down from bacterial whole cell extract, anti-FLAG western blot
[4] = target: GST-BRCA1(1-639)/FLAG®-BARD1 heterodimer (Homo sapiens (Human)) (UniProt P38398); test: as above
[5] = target: BRCC300 (human (endogenous protein of human H1299 cells)); test: affinity purification of the truncated BARD1 complex from stable cell lines (co-purification; may be indirect)
[6] = target: T1, BRCC130 (human (endogenous protein of human H1299 cells)) (UniProt Q86UV5); test: as above
T1 sequence: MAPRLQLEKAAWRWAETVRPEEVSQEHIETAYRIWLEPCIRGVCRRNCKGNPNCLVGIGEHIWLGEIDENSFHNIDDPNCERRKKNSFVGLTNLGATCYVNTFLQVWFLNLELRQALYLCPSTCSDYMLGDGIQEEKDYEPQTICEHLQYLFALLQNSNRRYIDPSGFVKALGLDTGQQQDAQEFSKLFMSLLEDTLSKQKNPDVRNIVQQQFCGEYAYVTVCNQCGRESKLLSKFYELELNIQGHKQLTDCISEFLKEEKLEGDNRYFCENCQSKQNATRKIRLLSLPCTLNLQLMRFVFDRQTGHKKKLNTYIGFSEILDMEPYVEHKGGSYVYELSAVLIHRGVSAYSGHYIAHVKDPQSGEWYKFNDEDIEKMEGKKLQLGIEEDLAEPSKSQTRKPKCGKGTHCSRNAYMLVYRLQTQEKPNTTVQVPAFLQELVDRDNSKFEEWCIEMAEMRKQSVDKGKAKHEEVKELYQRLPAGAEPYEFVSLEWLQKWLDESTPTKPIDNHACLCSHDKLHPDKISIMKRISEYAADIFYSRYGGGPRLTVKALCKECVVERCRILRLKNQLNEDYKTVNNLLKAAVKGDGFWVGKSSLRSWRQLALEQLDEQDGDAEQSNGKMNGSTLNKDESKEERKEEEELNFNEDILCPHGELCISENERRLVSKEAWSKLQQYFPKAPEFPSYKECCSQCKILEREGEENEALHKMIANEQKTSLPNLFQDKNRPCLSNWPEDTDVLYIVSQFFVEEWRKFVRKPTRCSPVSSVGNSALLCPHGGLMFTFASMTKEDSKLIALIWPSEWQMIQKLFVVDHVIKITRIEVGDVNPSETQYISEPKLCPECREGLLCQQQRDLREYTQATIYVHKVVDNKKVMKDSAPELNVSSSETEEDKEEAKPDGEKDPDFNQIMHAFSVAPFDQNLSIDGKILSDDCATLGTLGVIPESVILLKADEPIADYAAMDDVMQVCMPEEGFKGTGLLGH

[7] = target: BRCC36 (endogenous) (Homo sapiens) (UniProt P46736); test: as above
[8] = target: BRE (human (endogenous protein of human 293 / H1299 cells)); test: as above
[9] = target: T2, BRCC80 (human (endogenous protein of human H1299 cells)) (UniProt Q96RL1); test: as above
T2 sequence: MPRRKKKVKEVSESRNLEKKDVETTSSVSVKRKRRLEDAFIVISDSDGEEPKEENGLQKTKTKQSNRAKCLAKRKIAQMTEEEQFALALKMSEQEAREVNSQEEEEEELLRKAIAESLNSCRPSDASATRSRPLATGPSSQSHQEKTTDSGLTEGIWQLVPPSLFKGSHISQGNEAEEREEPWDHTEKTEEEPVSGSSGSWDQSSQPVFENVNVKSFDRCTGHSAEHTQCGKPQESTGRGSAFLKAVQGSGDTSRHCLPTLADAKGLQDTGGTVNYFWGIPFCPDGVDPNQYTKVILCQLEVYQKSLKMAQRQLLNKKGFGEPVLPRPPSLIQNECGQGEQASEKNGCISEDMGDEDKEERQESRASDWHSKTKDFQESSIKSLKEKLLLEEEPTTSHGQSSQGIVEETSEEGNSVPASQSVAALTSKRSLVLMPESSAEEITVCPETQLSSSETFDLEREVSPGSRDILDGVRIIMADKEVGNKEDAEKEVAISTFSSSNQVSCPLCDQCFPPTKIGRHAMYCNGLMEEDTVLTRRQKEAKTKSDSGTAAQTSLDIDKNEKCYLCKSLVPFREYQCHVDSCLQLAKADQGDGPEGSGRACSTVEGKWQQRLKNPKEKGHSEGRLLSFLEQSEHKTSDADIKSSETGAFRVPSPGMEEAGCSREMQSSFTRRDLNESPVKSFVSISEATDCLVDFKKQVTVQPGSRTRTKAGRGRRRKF

[10] = target: T3, BRCC140 (human (endogenous protein of human H1299 cells)) (UniProt Q86YC2); test: as above
T3 sequence: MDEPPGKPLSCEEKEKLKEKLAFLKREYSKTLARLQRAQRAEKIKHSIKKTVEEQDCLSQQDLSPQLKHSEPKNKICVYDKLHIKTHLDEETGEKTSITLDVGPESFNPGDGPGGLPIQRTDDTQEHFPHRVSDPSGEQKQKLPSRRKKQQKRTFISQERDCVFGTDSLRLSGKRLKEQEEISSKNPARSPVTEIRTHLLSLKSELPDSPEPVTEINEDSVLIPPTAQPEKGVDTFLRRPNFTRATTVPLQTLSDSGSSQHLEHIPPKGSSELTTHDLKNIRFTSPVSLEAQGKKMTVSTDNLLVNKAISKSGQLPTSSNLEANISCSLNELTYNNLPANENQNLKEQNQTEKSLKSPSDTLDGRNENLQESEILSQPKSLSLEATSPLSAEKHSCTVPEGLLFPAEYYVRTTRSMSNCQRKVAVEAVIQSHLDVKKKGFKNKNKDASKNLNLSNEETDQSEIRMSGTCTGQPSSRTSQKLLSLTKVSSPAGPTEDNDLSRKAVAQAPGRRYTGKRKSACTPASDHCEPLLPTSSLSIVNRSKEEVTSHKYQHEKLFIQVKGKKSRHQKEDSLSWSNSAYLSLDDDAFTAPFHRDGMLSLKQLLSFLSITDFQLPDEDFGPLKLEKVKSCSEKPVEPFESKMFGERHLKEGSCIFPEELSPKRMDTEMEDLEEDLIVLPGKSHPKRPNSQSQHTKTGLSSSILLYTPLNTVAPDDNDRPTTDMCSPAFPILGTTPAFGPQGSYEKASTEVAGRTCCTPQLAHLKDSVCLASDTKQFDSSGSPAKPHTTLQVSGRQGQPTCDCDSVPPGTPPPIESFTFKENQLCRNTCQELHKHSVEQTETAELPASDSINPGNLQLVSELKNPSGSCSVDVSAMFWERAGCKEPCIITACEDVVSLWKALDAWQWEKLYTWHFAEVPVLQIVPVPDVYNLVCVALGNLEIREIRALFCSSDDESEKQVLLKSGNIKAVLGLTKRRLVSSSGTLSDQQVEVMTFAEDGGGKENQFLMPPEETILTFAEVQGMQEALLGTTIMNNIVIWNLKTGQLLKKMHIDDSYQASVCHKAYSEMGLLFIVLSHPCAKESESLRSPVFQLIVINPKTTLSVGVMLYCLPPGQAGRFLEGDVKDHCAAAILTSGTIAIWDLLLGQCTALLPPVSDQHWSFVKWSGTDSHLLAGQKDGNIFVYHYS

Row | binding [1] | binding [2] | binding [3] | binding [4] | binding [5] | binding [6] | binding [7] | binding [8] | binding [9] | binding [10] | Substance
1 | binds | binds | binds | binds |  |  |  |  |  |  | (His)6-FLAG®-BRCC36 protein (from UniProt P46736 1-316)
2 |  |  |  |  | binds | binds | binds | binds | binds | binds | truncated form of BARD1 (1-398) (from UniProt Q99728 1-398)
